# PubChem BioAssay AID504467 (National Center for Advancing Translational Sciences (NCATS), 2011)
# Among all 330,000 compounds or so, about 7,700 (2.3%) were called active. This list was built around the results that the source calls inconclusive (neither active nor inactive); the mix of calls is not that of the screen. The call rests on the fitted dose curve; in most records, active means well fitted inhibition curve with a large enough effect; inconclusive means small, poorly fitted or top-dose-only effect, or effect the other way; inactive means flat fitted curve, though single readings scatter. Where the call is inconclusive, the potency comes from a doubtful curve fit.
# Test: qHTS screen for small molecules that inhibit ELG1-dependent DNA repair in human embryonic kidney (HEK293T) cells expressing luciferase-tagged ELG1; further: nearly all actives have a fitted effect of over 55% in size
# Conditions: HEK293T ELG1-luciferase reporter, luminescence, 16 h, DNA damage induced by 5-fluorouridine; activity change, negative = inhibition: at 46.1 µM (top of the series)
# Outline: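 Step one: seed 2,000 cells per well. Step two: pin-transfer compound or DMSO alongside 5-fluorouridine. Step three: incubate 16 hr, 37 °C, 5% CO2. Step four: add ONE-Glo, wait 30 min, read luminescence.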
# On the % scale 0 is the no-effect control and ±100 the full control effect; potency means the concentration at half of the fitted maximal effect.
SMILES,Potency,"activity change, negative = inhibition"
CCOC(=O)COc1cccc2c(=O)n(CC(N)=O)ccc12,"inconclusive: 25.9 µM [activator, partial curve, poor fit]",
CN(Cc1cccs1)C(=O)CCCc1c[nH]c2ccccc12,"inconclusive: 16.4 µM [activator, partial curve]",
CC(=O)c1ccc(N=Nc2ccc(N(C)C)cc2)cc1,"inconclusive: 1.16 µM [activator, partial curve]",
Cc1c(Cl)cccc1-c1ccc(C(=O)N2CCN(c3ccc([N+](=O)[O-])cc3)CC2)o1,active: 16.4 µM,
COCCN(CCOC)S(=O)(=O)c1ccc(C(=O)Nc2nnc(C)o2)cc1,"inconclusive: 13 µM [activator, partial curve, poor fit]",
COC1CCN(C(=O)C2CCC(=O)N(C3CCCCCC3)C2)CC1 (configuration not stated),"inconclusive: 20.6 µM [activator, partial curve]",
NC(=O)CN1CCN(C(=O)Nc2ccccc2)CC1,"inconclusive: 18.4 µM [activator, single point]",
COC(=O)c1ccccc1NC(=O)CN1CCC(n2nnc3cc(F)ccc32)CC1,,inactive: -14.3%
CCOC(=O)/C(C#N)=N/Nc1ccccc1OC,"inconclusive: 18.4 µM [activator, single point]",
COc1ccc(C(=O)N2CCN(c3ncccn3)CC2)cc1,,inactive: -0.323%
CCn1c(-c2cc(-c3ccc(OC(C)C)cc3)nc3ccccc23)n[nH]c1=S,"inconclusive: 13 µM [activator, partial curve]",
Cc1ncsc1C(=O)N1CCCC(C(=O)c2ccc3ccccc3c2)C1 (configuration not stated),,inactive: -28.7%
CCCCCn1c(SCCC(C)C)nc2c1c(=O)[nH]c(=O)n2C,"inconclusive: 29.1 µM [inhibitor, single point]",
CCn1c(=S)[nH]c2cc(S(=O)(=O)N3CCCCC3)ccc21,"inconclusive: 5.17 µM [activator, single point]",
CCOCCCNc1nc2c(c(=O)n(C)c(=O)n2C)n1CCCc1ccccc1,"inconclusive: 20.6 µM [inhibitor, partial curve]",
C=CCOc1ccc(/C=N/NC(=O)c2cc3c(OC)cc(OC)cc3[nH]2)cc1,"inconclusive: 18.3 µM [inhibitor, single point]",
CCOC(=O)CCC(=O)Nc1ccc(S(=O)(=O)N2CCCCC2)cc1,,inactive: 1.12%
Cc1cccc(C)c1NC(=O)CN1C(=O)NC(C)(CCc2ccccc2)C1=O (configuration not stated),,inactive: -5.94%
O=C(Nc1ccc(N2CCN(Cc3ccccc3Cl)CC2)cc1)c1cccnc1,"inconclusive: 9.2 µM [inhibitor, partial curve, poor fit]",
O=C(c1cc2cc(Br)ccc2o1)N1CCOCC1,"inconclusive: 18.3 µM [activator, single point]",
CC(=O)Nc1ccc(NC(=O)CSc2ccccn2)cc1,"inconclusive: 29.1 µM [activator, single point]",

# As entered above:
# In Potency, CCCCCn1c(SCCC(C)C)nc2c1c(=O)[nH]c(=O)n2C shows inconclusive: 29.1 µM [inhibitor, single point]
# In Potency, CC(=O)c1ccc(N=Nc2ccc(N(C)C)cc2)cc1 shows inconclusive: 1.16 µM [activator, partial curve]

# Next part:

SMILES,Potency,"activity change, negative = inhibition"
COc1cc(OC)c2c(c1)C(=O)OC2,"inconclusive: 29.1 µM [activator, single point]",
C=CCNC(=O)Cc1ccc(S(=O)(=O)N2CCOCC2)s1,,inactive: 8.5%
COc1cc2c(c(OC)c1OC)C(c1ccccc1C)CC(=O)O2 (configuration not stated),"inconclusive: 16.4 µM [activator, single point]",
COc1ccc(-c2cc(C(=O)NCCc3ccccc3)no2)cc1OC,"inconclusive: 29.1 µM [activator, single point]",
Cc1ccccc1S(=O)(=O)Cc1ccc(C(=O)NCCN2CCN(Cc3ccccc3)CC2)o1,"inconclusive: 18.4 µM [inhibitor, single point]",
COc1cccc(C2(O)CCN(C(=O)C(C)C)CC2)c1,"inconclusive: 11.6 µM [activator, partial curve, poor fit]",
CCN(CCCNc1ncnc2nc[nH]c12)c1cccc(C)c1,"inconclusive: 20.6 µM [inhibitor, partial curve]",
COc1ccc(C(=O)Nc2ccc(OCC(=O)N3CCOCC3)cc2)c(OC)c1OC,"inconclusive: 20.6 µM [activator, partial curve, poor fit]",
CC(=O)OCC1OC(Sc2cccc3cccnc23)C(OC(C)=O)C(OC(C)=O)C1OC(C)=O (configuration not stated),,inactive: -15.2%
N#C/C(=C/c1ccccc1)C(=O)NCc1ccccc1,,inactive: -0.798%
CCCCn1c(N)c(N(CCC(C)C)C(=O)c2ccc(C)c(S(=O)(=O)N3CCOCC3)c2)c(=O)[nH]c1=O,,inactive: 0.917%
O=C(NC(=S)N1CCCc2ccccc21)c1ccc(Cl)cc1,"inconclusive: 14.6 µM [activator, partial curve]",
C[C@]12c3[nH]c4ccc(Cl)cc4c3CCN1C(=O)[C@@H](CC(=O)NCc1ccco1)C[C@@H]2C(=O)N1CCCCC1,"inconclusive: 16.4 µM [inhibitor, partial curve]",
O=C(COc1ccccc1[N+](=O)[O-])NCc1cccnc1,"inconclusive: 16.4 µM [activator, partial curve, poor fit]",
COc1ccc(N2CCN(CCNS(=O)(=O)c3ccc(C)cc3)CC2)cc1,"inconclusive: 16.4 µM [inhibitor, partial curve, poor fit]",
COc1ccc(S(=O)(=O)Nc2ccc3c(c2)C(=O)N([C@H](C)CO)C[C@H](C)[C@H](CN(C)Cc2ccc(C(=O)O)cc2)O3)cc1,"inconclusive: 11.6 µM [activator, partial curve, poor fit]",
Cc1cc2c(=O)oc(-c3ccc(Br)cc3)nc2s1,"inconclusive: 16.4 µM [activator, partial curve]",
O=C(Nc1ccn(-c2ccccc2)n1)c1ccc(S(=O)(=O)N2CCCCCC2)cc1,active: 5.17 µM,
O=C(CN1C(=O)c2cccc3cccc1c23)N1CCN(Cc2ccc3c(c2)OCO3)CC1,"inconclusive: 23.1 µM [inhibitor, single point]",
COC(=O)c1ccc(NC(=O)C(=O)NCC2CCCO2)cc1 (configuration not stated),"inconclusive: 20.6 µM [activator, single point]",
Cc1nn2c(C(F)(F)F)cc(-c3ccc(Cl)cc3)nc2c1C(=O)N1CCOCC1,active: 16.4 µM,
